Data published in patent publication US10975016B2, “Solvent compounds for use as glycol ether replacements” (TBF ENVIRONMENTAL TECHNOLOGY INC., priority 2017, dated 2021).

Experiment: 4.3% of coalescent in acrylic polymer Raycryl 1001: mixing and film properties
Settings: for Compatibility / Film Clarity / Film Flexibility, Softness / Film Gloss / Film Integrity: 4.3% of coalescent in Raycryl 1001; for Mixing Ease: 4.3% of coalescent in Raycryl 1001 (46% solid)

## CCCCOCCO [Butyl Cellosolve]
  Compatibility: Compatible
  Film Clarity: Clear
  Film Flexibility, Softness: Brittle
  Film Gloss: Glossy
  Film Integrity: Cracked
  Mixing Ease: Easy

## CC(C)C(=O)OCC(C)(C)C(O)C(C)C (stereo not drawn) [Texanol]
  Compatibility: Compatible
  Film Clarity: Clear
  Film Flexibility, Softness: Brittle
  Film Gloss: Glossy
  Film Integrity: Cracked
  Mixing Ease: Not Easy,

## CCCCOCCOC(=O)OCCOCCCC [XBC4, bis(2-ButoxyEthyl Carbonate)]
  Compatibility: Compatible
  Film Clarity: Clear
  Film Flexibility, Softness: Flexible,
  Film Gloss: Glossy
  Film Integrity: Clear
  Mixing Ease: Not Easy,
